According to PMC6818788:

Target: T1, Flag-IRF7 (mouse) (UniProt P70434)
T1 sequence: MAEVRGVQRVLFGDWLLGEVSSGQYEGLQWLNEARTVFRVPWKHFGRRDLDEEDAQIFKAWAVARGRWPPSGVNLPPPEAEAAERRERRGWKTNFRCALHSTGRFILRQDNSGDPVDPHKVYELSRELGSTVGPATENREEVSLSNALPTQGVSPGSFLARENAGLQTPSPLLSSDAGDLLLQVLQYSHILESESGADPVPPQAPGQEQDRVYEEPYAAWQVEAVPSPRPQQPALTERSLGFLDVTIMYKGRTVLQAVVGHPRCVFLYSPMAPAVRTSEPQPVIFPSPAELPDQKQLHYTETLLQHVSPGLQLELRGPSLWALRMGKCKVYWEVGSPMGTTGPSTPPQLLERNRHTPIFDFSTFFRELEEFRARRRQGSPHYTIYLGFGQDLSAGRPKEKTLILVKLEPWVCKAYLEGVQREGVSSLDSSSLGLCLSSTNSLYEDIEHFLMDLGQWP
Experiment: co-IP; HEK293T cells co-transfected with Flag-IRF7 and HA-tagged p200 family protein or mutant; lysate immunoprecipitated with anti-Flag, immunoblot with anti-HA

Row | Substance | binding
1 | HA-IFI16β (human) | binds
2 | HA-IFI205 (mouse) | binds

No constants are given. Whether binding was seen depends on the method and setting. Binding seen in cells or lysates may run through a third protein. A result given as binding can be weak or reduced; the word gives no strength. Where a sequence is shown, tags or fusion partners need not be part of it.
